Reference: the supplement of paper PMC11348887
Structures can show the parent of a compound that is named as a salt. Some of the results follow. Most entries show no effect beyond the scatter of the controls. Where a SMILES comes first, the peptide text is derived from it.

test system: hPSC-derived cortical neurons (WA09); assay: KCl-induced FOS+/EGR-1+ double-positive nuclei fraction z-score (KCl minus unstimulated); higher = stronger activity-induced IEG response; details: 5 µM; treatment: days 7-14 after plating, readout day 21

| Structure (SMILES) | KCl-induced FOS+/EGR-1+ double-positive nuclei fraction z-score |
| --- | --- |
| C[N+](C)(C)C[C@H](O)CC(=O)[O-] [L-carnitine] | 0.795 |
| Cc1nc(Nc2cnn(C3CCNCC3)c2)nc2c1N(C)C(=O)c1cc3ccccc3cc1N2C | 0.00925 |
| [O-][n+]1cccc(CO)c1 [Mepiroxol] | -0.835 |
| COc1cc(N2CCC(N3CCN(C)CC3)CC2)ccc1Nc1ncnc(Nc2ccccc2S(=O)(=O)C(C)C)n1 | -0.203 |
| Nc1ccn([C@@H]2CS[C@H](CO)O2)c(=O)n1 [Lamivudine] | -0.585 |
| C=C1CC[C@H](O)C/C1=C/C=C1\CCC[C@]2(C)[C@@H]([C@H](C)CCCC(C)C)CC[C@@H]12 [Vitamin D3] | -1.93 |
| C[C@]12C=CC(=O)N[C@@H]1CC[C@@H]1[C@@H]2CC[C@]2(C)[C@@H](C(=O)Nc3cc(C(F)(F)F)ccc3C(F)(F)F)CC[C@@H]12 [Dutasteride] | 0.984 |
| CC[C@@](C)(Nc1ccnc(-c2c[nH]c3ncccc23)n1)C(=O)NCC(F)(F)F [Decernotinib (VX-509)] | 0.935 |
| O=C(c1ccc(/C=C/c2n[nH]c3ccccc23)cc1)N1CCNCC1 | 0.473 |
| Nc1cc(F)ccc1NC(=O)/C=C/c1cnn(C/C=C/c2ccccc2)c1 | -0.256 |
| O=C(OCc1ccccc1)c1ccccc1 [Benzyl benzoate] | 1.31 |
| COC(=O)[C@H](Cc1ccccc1)NC(=O)[C@@H](N)CC(=O)O [Aspartame] (H-Asp-Phe-OMe) | -1.11 |
| CC(C)[C@H](N)C(=O)OCCOCn1cnc2c(=O)nc(N)[nH]c21 [Valaciclovir HCl] | 1.35 |
| COC(=O)[C@H](c1ccccc1Cl)N1CCc2sccc2C1 [Clopidogrel] | -0.335 |
| CC(C)(c1ccc(OCC(O)CO)cc1)c1ccc(OCC(O)CCl)cc1 (centres undefined) | 0.989 |
| C[C@H](CS)C(=O)N1CCC[C@H]1C(=O)O [Captopril] | 3.78 |
| CCCC[C@@H](C=O)NC(=O)[C@H](CC(C)C)NC(=O)OCc1ccccc1 [Calpeptin] | 0.981 |
| CCOC(=O)[C@@H](N)Cc1ccc(-c2cc(O[C@H](c3ccc(Cl)cc3-n3ccc(C)n3)C(F)(F)F)nc(N)n2)cc1 [Telotristat Etiprate (LX 1606 Hippurate)] | 0.49 |
| c1cn2cc(-c3ccc4cn[nH]c4c3)nc(Nc3ccc(N4CCOCC4)cc3)c2n1 | -0.0358 |
| C[C@H]1[C@@H](O)O[C@@H]2O[C@@]3(C)CC[C@H]4[C@H](C)CC[C@@H]1[C@@]24OO3 [Dihydroartemisinin (DHA)] | -0.734 |

Sorted by molecular weight (high to low): some entries from above.

| Structure (SMILES) | KCl-induced FOS+/EGR-1+ double-positive nuclei fraction z-score |
| --- | --- |
| CCOC(=O)[C@@H](N)Cc1ccc(-c2cc(O[C@H](c3ccc(Cl)cc3-n3ccc(C)n3)C(F)(F)F)nc(N)n2)cc1 [Telotristat Etiprate (LX 1606 Hippurate)] | 0.49 |
| Nc1cc(F)ccc1NC(=O)/C=C/c1cnn(C/C=C/c2ccccc2)c1 | -0.256 |
| Nc1ccn([C@@H]2CS[C@H](CO)O2)c(=O)n1 [Lamivudine] | -0.585 |

Next part

| Structure (SMILES) | KCl-induced FOS+/EGR-1+ double-positive nuclei fraction z-score |
| --- | --- |
| OC[C@@H](O)[C@@H](O)CO [Erythritol] | 2.65 |
| COc1cc(N2CCN(C)CC2)ccc1Nc1nccc(-c2cn(C)c3cnccc23)n1 | -0.225 |
| O=C(Cc1ccccc1)Nc1nnc(CCSCCc2nnc(NC(=O)Cc3ccccc3)s2)s1 | 0.165 |
| Cc1cc2c(F)c(Oc3ncnn4cc(OC[C@@H](C)O)c(C)c34)ccc2[nH]1 | -0.0669 |
| CCn1c(=O)c2c(nc(/C=C/c3ccc(OC)c(OC)c3)n2C)n(CC)c1=O [Istradefylline] | 1.41 |
| C[C@H]1[C@H](C)CC[C@]2(C(=O)O)CC[C@]3(C)C(=CC[C@@H]4[C@@]5(C)C[C@@H](O)[C@H](O)[C@@](C)(CO)[C@@H]5CC[C@]43C)[C@H]12 [Asiatic Acid] | 0.825 |
| Cc1cc(=O)[nH]c(=S)[nH]1 [Methylthiouracil] | 2.01 |
| C[C@H]1CO[C@@H]2Cn3cc(C(=O)NCc4ccc(F)cc4F)c(=O)c(O)c3C(=O)N12 | 1.07 |
| O=C(O)c1ccccc1Nc1cccc(C(F)(F)F)c1 [Flufenamic acid] | -0.605 |
| O=C(Oc1ccccc1C(=O)O)c1ccccc1O [Sasapyrine] | 0.594 |
| CC(C)C[C@H](NC(=O)[C@H]1O[C@@H]1C(=O)O)C(=O)NCCCCN=C(N)N | -0.947 |
| COc1cc(-c2cc(-c3cccc(O)c3)cnc2N)cc(OC)c1OC | 1.54 |
| Cc1cc(Nc2cc(CN3CCOCC3)c3nc(C)c(Cc4ccc(Cl)cc4F)n3n2)n[nH]1 | -0.425 |
| N=C(N)NCCC[C@H](N)C(=O)O [L-Arginine HCl (L-Arg)] | 0.752 |
| COc1cc(Nc2ncc(F)c(Nc3ccc4c(n3)NC(=O)C(C)(C)O4)n2)cc(OC)c1OC | 0.172 |
| C#CCC(Cc1cnc2nc(N)nc(N)c2n1)c1ccc(C(=O)N[C@@H](CCC(=O)O)C(=O)O)cc1 (some centres undefined) [Pralatrexate] | -1.09 |
| Cc1nccn1CC1CCc2c(c3ccccc3n2C)C1=O (centres undefined) [Ondansetron HCl] | 1.8 |
| C[C@]1(c2nc3c(C(N)=O)cccc3[nH]2)CCCN1 [Veliparib (ABT-888)] | 2.11 |
| Cc1ccc(-n2nc(C(C)(C)C)cc2NC(=O)Nc2ccc(OCCN3CCOCC3)c3ccccc23)cc1 [BIRB 796 (Doramapimod)] | -0.858 |
